From article PMC8366683 (Future oncology (London, England), 2013) come the findings set out here.

Structures are written as SMILES.

One assay relates to KB-3-1. In words: cells. Conditions: Homo sapiens, KB 3-1, 72 h, read-out: IC50 ± SD^†; nM (resistance fold) / KB-3-1.
The next assay concerns HEK293/pcDNA3.1. Description: cells. Conditions: Homo sapiens, HEK293, 72 h, read-out: IC50 ± SD^†; nM (resistance fold) / HEK293/pcDNA3.1.

As usually defined, the IC50 is the concentration needed to halve the response being measured. For `COc1cc2c(c(OC)c1OC)-c1ccc(OC)c(=O)cc1[C@@H](NC(C)=O)CC2` [Colchicine], the IC50 was 19 nM with KB-3-1 and 20.4 nM in the assay on HEK293/pcDNA3.1.
